Experimental data from publication PMC4827801.
No constants are given. Whether binding was seen depends on the method and setting. Binding seen in cells or lysates may run through a third protein. Some binding calls cover weakened binding; strength is not graded here.

By UniProt entry, the sequences of proteins in these tests, tags left out.
UniProt O15379: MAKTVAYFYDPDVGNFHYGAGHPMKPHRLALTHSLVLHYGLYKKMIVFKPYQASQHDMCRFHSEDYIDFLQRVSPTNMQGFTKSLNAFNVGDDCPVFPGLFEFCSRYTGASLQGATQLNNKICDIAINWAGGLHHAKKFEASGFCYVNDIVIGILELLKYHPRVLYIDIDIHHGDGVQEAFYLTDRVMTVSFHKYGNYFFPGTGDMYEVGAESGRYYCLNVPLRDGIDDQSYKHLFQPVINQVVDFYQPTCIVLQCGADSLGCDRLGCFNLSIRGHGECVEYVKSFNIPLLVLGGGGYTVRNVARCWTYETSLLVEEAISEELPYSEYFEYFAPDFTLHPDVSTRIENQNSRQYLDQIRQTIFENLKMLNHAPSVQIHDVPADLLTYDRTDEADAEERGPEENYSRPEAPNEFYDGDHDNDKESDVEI
UniProt O75376: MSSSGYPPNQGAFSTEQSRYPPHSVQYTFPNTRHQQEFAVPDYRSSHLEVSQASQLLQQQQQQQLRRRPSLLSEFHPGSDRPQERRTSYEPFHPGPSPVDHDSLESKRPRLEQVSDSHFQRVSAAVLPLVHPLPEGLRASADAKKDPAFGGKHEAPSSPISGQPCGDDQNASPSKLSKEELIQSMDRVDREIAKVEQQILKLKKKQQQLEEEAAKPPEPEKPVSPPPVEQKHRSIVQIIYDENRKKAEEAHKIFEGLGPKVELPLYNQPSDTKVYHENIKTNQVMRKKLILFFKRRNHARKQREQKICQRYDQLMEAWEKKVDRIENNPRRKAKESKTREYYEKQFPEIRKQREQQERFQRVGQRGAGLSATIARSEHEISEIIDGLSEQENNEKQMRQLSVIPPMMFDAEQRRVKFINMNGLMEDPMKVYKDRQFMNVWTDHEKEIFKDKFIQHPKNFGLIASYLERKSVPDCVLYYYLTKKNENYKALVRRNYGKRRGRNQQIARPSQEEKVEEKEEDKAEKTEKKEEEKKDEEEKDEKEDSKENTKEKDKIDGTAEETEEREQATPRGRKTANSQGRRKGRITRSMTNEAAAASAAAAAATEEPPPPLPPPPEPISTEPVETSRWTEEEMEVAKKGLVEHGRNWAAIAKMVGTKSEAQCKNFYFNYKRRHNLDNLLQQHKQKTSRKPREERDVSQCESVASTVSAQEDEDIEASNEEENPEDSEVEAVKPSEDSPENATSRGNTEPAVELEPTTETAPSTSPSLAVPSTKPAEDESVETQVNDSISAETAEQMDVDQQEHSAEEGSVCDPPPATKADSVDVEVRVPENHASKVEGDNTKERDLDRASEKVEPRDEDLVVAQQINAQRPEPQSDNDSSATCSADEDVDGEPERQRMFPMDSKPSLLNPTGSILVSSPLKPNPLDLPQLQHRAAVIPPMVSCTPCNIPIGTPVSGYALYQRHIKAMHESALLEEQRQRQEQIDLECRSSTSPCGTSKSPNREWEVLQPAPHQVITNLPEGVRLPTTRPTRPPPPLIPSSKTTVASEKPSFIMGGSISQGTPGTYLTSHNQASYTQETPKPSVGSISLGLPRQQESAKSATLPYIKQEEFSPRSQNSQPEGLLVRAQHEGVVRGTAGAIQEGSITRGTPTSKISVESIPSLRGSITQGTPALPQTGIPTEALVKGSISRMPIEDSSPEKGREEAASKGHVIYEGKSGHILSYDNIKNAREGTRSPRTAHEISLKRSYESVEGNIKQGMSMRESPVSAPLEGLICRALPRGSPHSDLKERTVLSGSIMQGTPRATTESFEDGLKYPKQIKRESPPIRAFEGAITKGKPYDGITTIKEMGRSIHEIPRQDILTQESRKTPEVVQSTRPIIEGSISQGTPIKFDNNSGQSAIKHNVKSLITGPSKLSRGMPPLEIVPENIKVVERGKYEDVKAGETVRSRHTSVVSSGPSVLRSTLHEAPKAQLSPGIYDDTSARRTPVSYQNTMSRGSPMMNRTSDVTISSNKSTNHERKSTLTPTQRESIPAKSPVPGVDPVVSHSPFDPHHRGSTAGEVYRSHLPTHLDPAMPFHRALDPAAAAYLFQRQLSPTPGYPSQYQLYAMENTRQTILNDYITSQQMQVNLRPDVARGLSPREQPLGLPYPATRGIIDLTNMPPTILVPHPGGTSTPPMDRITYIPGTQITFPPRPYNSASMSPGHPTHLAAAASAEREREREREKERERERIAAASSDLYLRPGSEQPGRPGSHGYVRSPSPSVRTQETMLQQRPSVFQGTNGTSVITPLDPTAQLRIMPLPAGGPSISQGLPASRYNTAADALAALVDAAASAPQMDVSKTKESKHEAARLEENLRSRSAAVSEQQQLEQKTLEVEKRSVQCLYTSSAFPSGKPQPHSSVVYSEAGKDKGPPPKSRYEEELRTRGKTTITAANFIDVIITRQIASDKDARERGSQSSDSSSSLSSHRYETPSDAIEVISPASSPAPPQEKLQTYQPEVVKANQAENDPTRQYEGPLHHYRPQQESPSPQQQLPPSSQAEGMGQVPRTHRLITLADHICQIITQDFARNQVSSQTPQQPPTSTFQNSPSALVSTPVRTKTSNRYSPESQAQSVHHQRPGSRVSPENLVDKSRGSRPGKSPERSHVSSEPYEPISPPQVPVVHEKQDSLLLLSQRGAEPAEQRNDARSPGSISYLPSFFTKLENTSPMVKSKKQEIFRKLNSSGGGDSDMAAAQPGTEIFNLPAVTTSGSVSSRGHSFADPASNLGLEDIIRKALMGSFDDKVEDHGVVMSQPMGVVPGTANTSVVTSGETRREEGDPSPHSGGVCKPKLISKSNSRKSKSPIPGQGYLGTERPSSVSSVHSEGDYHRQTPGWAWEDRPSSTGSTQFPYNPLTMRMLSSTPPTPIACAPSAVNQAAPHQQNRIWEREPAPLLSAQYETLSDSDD

Target: HPV16 E8^E2C-HA (Human papillomavirus 16) (UniProt P0DKA0)
Experiment: co-IP; lysates of stable 293T cell lines (1.5 x 10^7 cells) precipitated with magnetic anti-HA beads, immunoblot for endogenous proteins; IP-buffer 50mM HEPES pH7.5, 150mM NaCl, 10% glycerol, 5mM EDTA, 1mM DTT or 50mM HEPES pH7.9, 150mM NaCl, 0.3% Igepal 630, 1mM DTT

Molecule	binding
HDAC3 (histone deacetylase 3) (from UniProt O15379 1-428) (enzyme)	binds
NCoR (from UniProt O75376 1-2440)	binds
TBL1 (transducin-beta like 1) (protein, UniProt O60907 1-577) MTELAGASSSCCHRPAGRGAMQSVLHHFQRLRGREGGSHFINTSSPRGEAKMSITSDEVNFLVYRYLQESGFSHSAFTFGIESHISQSNINGTLVPPAALISILQKGLQYVEAEISINEDGTVFDGRPIESLSLIDAVMPDVVQTRQQAFREKLAQQQASAAAAAAAATAAATAATTTSAGVSHQNPSKNREATVNGEENRAHSVNNHAKPMEIDGEVEIPSSKATVLRGHESEVFICAWNPVSDLLASGSGDSTARIWNLNENSNGGSTQLVLRHCIREGGHDVPSNKDVTSLDWNTNGTLLATGSYDGFARIWTEDGNLASTLGQHKGPIFALKWNRKGNYILSAGVDKTTIIWDAHTGEAKQQFPFHSAPALDVDWQNNTTFASCSTDMCIHVCRLGCDRPVKTFQGHTNEVNAIKWDPSGMLLASCSDDMTLKIWSMKQEVCIHDLQAHNKEIYTIKWSPTGPATSNPNSNIMLASASFDSTVRLWDIERGVCTHTLTKHQEPVYSVAFSPDGKYLASGSFDKCVHIWNTQSGNLVHSYRGTGGIFEVCWNARGDKVGASASDGSVCVLDLRK	binds
